# ± gives the standard deviation of the averaged measurements. The list shows a part of the results.
# Legend:
# Assay in all cases: NP40-soluble protein abundance relative to vehicle (solubility fold change) (ratio); higher = more soluble protein in presence of GTP
# [1] = molecular target: T1, F5H7W8 and related entries (UniProt Q96C57)
# T1 sequence (whole entry): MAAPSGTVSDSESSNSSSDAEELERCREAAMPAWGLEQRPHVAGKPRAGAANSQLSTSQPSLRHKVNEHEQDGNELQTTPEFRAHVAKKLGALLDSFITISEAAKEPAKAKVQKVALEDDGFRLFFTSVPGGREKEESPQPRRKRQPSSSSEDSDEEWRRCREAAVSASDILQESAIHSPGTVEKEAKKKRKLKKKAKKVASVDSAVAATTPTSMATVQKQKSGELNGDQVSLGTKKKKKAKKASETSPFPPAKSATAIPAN
# How it was run: (§1)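 Across three independent experiments, values are fold changes against the detergent-processed vehicle for each replicate, based on vsn-normalised intensities. The samples were Jurkat crude lysate treated with eight concentrations (0.1 to 10 mM) for 10 min at room temperature and then 3 min at 37 °C. Lysate was solubilised with 0.8% NP40 and benzonase, ultracentrifuged, and the supernatant analysed by TMT-labelled LC-MS/MS.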
# [2] = molecular target: T2, F8VUC5 and related entries (UniProt P61923)
# T2 sequence (whole entry): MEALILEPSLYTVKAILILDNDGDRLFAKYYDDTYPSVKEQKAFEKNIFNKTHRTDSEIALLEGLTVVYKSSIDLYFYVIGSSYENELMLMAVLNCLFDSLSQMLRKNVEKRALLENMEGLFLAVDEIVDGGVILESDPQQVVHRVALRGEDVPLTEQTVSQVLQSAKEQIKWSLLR
# How it was run: as §1
# [3] = molecular target: T3, F8VXK3 and related entries (UniProt Q9NPF2)
# T3 sequence (whole entry): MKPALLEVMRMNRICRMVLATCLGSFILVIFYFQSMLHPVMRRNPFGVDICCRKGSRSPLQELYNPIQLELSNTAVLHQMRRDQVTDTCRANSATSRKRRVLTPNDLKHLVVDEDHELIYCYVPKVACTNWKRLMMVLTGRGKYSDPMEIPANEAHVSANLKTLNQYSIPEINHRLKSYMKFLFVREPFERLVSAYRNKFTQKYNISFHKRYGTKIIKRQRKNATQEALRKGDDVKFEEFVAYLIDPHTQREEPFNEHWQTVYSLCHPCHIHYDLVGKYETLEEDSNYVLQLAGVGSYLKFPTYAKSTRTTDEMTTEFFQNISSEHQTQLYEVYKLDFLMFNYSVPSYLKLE
# How it was run: as §1
# [4] = molecular target: T4, F8W8H5 and related entries (UniProt Q969Q5)
# T4 sequence (whole entry): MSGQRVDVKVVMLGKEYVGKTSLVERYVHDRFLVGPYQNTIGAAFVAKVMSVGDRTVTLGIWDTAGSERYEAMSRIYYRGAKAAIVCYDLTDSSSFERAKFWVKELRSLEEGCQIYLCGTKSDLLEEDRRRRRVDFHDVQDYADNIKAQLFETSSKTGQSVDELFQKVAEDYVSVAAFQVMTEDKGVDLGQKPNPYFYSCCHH
# How it was run: as §1
structure (smiles),measurement,setting,value
Nc1nc2c(ncn2[C@@H]2O[C@H](COP(=O)(O)OP(=O)(O)OP(=O)(O)O)[C@@H](O)[C@H]2O)c(=O)[nH]1 [guanosine triphosphate],NP40-soluble protein abundance,[1]; concentration: 1mM,1.07 ± 0.096
same,NP40-soluble protein abundance,[1]; concentration: 2mM,1.11 ± 0.19
same,NP40-soluble protein abundance,[1]; concentration: 4mM,1.13 ± 0.099
same,NP40-soluble protein abundance,[1]; concentration: 6mM,1.18 ± 0.15
same,NP40-soluble protein abundance,[1]; concentration: 8mM,1.19 ± 0.22
same,NP40-soluble protein abundance,[1]; concentration: 10mM,1.42 ± 0.2
same,NP40-soluble protein abundance,[2]; concentration: 0.1mM,0.905 ± 0.044
same,NP40-soluble protein abundance,[2]; concentration: 0.5mM,0.912 ± 0.043
same,NP40-soluble protein abundance,[2]; concentration: 1mM,0.905 ± 0.042
same,NP40-soluble protein abundance,[2]; concentration: 2mM,0.885 ± 0.031
same,NP40-soluble protein abundance,[2]; concentration: 4mM,0.897 ± 0.062
same,NP40-soluble protein abundance,[2]; concentration: 6mM,0.877 ± 0.023
same,NP40-soluble protein abundance,[2]; concentration: 8mM,0.872 ± 0.056
same,NP40-soluble protein abundance,[2]; concentration: 10mM,0.875 ± 0.065
same,NP40-soluble protein abundance,[3]; concentration: 0.1mM,1.04 ± 0.06
same,NP40-soluble protein abundance,[3]; concentration: 0.5mM,0.992 ± 0.056
same,NP40-soluble protein abundance,[3]; concentration: 1mM,0.975 ± 0.035
same,NP40-soluble protein abundance,[3]; concentration: 2mM,0.988 ± 0.046
same,NP40-soluble protein abundance,[3]; concentration: 4mM,1.05 ± 0.033
same,NP40-soluble protein abundance,[3]; concentration: 6mM,0.987 ± 0.032
same,NP40-soluble protein abundance,[3]; concentration: 8mM,1.03 ± 0.03
same,NP40-soluble protein abundance,[3]; concentration: 10mM,1.05 ± 0.055
same,NP40-soluble protein abundance,[4]; concentration: 0.1mM,1.11 ± 0.077
same,NP40-soluble protein abundance,[4]; concentration: 0.5mM,1.05 ± 0.093
same,NP40-soluble protein abundance,[4]; concentration: 1mM,0.971 ± 0.11
same,NP40-soluble protein abundance,[4]; concentration: 2mM,0.984 ± 0.11
same,NP40-soluble protein abundance,[4]; concentration: 4mM,0.992 ± 0.073
same,NP40-soluble protein abundance,[4]; concentration: 6mM,0.946 ± 0.075
same,NP40-soluble protein abundance,[4]; concentration: 8mM,0.919 ± 0.047
same,NP40-soluble protein abundance,[4]; concentration: 10mM,0.896 ± 0.13

# Nothing new here: an excerpt of the list.
structure (smiles),measurement,setting,value
Nc1nc2c(ncn2[C@@H]2O[C@H](COP(=O)(O)OP(=O)(O)OP(=O)(O)O)[C@@H](O)[C@H]2O)c(=O)[nH]1 [guanosine triphosphate],NP40-soluble protein abundance,[4]; concentration: 0.1mM,1.11 ± 0.077
same,NP40-soluble protein abundance,[4]; concentration: 0.5mM,1.05 ± 0.093

# Reference: the supplement of paper PMC6411743
